We go through one sequence from paper PMC5996148.

Some of the results follow. For some assays here: The source does not settle which construct or isoform was used.

Among the test systems are TANK (human); TBC1D7 (human); TBC1D9B (human); TBCD (human); TBL1X (human); TCP11 (human); TCP11L1 (human); TESC (human); TEX13B (human); TF (human); TFF2 (human); THEM5 (human); THOC3 (human); TICAM2 (human); TIMM10 (human); TIMM8A (human); TIMM8B (human); TIPIN (human).
Holding throughout (assay): protein microarray (ProtoArray v5.0), streptavidin-Alexa Fluor 647
What all share (settings): 3'-biotin; 20 mM Tris (pH 7.5), 5 mM MgCl2, 100 mM KCl, 0.1% Tween-20, A/T-rich and random oligonucleotide blockers; temperature not stated; high values mean tight binding

Test [1] concerns TBC1 domain family member 13 (human).
The target in a further test is T1, TEKT4 (UniProt Q8WW24).
T1 sequence: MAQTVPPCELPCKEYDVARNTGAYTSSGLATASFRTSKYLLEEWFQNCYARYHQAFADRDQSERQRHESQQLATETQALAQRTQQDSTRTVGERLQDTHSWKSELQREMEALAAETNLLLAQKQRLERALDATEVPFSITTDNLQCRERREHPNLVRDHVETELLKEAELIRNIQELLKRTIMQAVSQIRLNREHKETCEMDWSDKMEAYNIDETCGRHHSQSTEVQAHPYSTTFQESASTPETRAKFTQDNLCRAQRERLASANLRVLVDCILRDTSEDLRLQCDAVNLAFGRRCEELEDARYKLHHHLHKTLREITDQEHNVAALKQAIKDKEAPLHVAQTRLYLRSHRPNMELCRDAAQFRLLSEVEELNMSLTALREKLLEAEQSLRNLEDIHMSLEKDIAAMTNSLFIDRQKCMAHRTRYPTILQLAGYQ

With “GGTGACAGGGGTATGGGGAGGGG [G4-2 biotinylated (Ct1)]”, the binding signal was -0.386 z-score in the test on TANK (human); -0.401 z-score in test [1]; -0.392 z-score with TBC1D7 (human); -0.37 z-score in the test on TBC1D9B (human); -0.39 z-score in the test with TBCD (human); -0.398 z-score with TBL1X (human). Moreover, the binding signal in the test with TCP11 (human) is -0.394 z-score; in the test on TCP11L1 (human), -0.372 z-score; in the test with TEKT4, -0.379 z-score; in the test with TESC (human) it was -0.385 z-score; in the test with TEX13B (human) it was -0.394 z-score; in the test with TF (human), -0.388 z-score. Also, the binding signal was -0.37 z-score in the test with TFF2 (human); -0.387 z-score with THEM5 (human); -0.38 z-score in the test on THOC3 (human); -0.358 z-score in the test with TICAM2 (human); -0.379 z-score in the test on TIMM10 (human); -0.387 z-score in the test with TIMM8A (human). Further, the binding signal is -0.387 z-score with TIMM8B (human) and -0.397 z-score in the test with TIPIN (human).
